Measured values taken from patent US20210130448A1.
These are yes or no findings as the source states them, for the method shown. Some results given as binding are weak or reduced against the parent protein; the word gives no strength.

Experiments:
[1] = target: T1, human BAI1 (plate-coated, ELISA) (human) (UniProt O14514); test: ELISA, plate coated with 2 µg/ml human BAI1; anti-human Fc HRP detection
T1 sequence: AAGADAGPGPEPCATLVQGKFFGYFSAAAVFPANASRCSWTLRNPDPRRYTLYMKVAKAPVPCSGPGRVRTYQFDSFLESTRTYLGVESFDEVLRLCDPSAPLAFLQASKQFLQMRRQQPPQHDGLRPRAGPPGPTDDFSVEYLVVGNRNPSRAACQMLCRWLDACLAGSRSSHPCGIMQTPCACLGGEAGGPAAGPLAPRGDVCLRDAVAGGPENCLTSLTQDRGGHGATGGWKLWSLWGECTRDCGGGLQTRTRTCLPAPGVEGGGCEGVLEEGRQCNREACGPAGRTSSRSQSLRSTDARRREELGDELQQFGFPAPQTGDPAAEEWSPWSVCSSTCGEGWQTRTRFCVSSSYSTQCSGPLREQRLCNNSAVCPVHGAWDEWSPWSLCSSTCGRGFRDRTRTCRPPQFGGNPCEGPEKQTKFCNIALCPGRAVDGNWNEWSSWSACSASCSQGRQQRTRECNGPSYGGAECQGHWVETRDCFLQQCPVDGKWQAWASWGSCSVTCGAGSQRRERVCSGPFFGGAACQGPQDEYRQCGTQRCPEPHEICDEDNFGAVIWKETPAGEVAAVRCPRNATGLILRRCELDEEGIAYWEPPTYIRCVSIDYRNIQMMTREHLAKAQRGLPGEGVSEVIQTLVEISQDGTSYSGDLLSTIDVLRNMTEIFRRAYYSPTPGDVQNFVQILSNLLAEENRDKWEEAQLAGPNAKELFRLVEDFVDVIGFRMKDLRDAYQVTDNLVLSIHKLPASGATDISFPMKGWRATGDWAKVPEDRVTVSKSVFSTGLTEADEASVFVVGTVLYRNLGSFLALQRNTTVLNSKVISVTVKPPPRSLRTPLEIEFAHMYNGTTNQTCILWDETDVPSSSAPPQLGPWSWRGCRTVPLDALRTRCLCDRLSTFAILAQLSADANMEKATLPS

[2] = target: T1, human BAI1 (plate-coated, ELISA) (human); test: ELISA on plate-coated human BAI1 (2 ug/ml), detected with HRP anti-human Fc

binding [1]: binds | binding [2]: binds
B1: G8 IgG (humanized anti-BAI1 IgG) (antibody, V domains shown)
VH: VQLQESGPGLVKPSQSLSLTCTVTGYSITSDYAWNWIRQFPGNKLEWMGYISYSGSTSYNPSLKSRISITRDTSKNQFFLQLNSVTTEDTATYYCANAQGYAMDYWGQGTSVTVSS
VL: DIVMTQSPATLSVTPGDRVSLSCRASQSISDYLHWYQQKSHESPRLLIKYASQSISGIPSRFSGSGSGSDFTLSINSVEPEDVGVYYCQNGHSFPFTFGSGTKLEIKR
